Measurements reported in paper PMC11455953.
No constants are given. Whether binding was seen depends on the method and setting. Binding seen in cells or lysates may run through a third protein. Some binding calls cover weakened binding; strength is not graded here. Tags and fused reporters may be left off the sequences shown.

By UniProt entry, the sequences of proteins in these tests, tags left out.
UniProt Q8NHH9: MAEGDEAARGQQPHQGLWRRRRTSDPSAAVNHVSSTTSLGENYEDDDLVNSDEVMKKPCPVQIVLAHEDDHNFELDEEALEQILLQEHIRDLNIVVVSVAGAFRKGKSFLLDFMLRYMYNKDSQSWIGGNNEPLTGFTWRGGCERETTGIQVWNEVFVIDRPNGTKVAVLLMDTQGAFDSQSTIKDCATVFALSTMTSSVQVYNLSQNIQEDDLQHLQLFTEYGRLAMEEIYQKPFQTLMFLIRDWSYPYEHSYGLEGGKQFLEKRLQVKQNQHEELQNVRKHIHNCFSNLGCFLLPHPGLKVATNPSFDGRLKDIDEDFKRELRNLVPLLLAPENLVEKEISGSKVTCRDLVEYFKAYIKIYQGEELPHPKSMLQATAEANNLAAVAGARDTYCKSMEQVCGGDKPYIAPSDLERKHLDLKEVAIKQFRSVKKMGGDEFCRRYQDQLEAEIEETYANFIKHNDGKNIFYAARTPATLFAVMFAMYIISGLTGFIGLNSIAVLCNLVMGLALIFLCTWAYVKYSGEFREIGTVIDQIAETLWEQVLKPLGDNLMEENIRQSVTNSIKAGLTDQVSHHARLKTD

Key:
[1] = target: T1, FLAG-tagged ATL1 (ATL1-FLAG) (human) (UniProt Q8WXF7); test: co-IP + SEC; REEP-SBP co-expressed with ATL-FLAG in Expi293 cells; solubilised in 3% digitonin, 50 mM HEPES pH 7.5, 800 mM NaCl, 4 °C; bound to anti-FLAG resin, eluted with 0.2 mg/ml 3xFLAG peptide; Superose 6 in 20 mM HEPES pH 7.5, 150 mM NaCl, 0.06% digitonin; fractions by SDS-PAGE and Coomassie blue
T1 sequence: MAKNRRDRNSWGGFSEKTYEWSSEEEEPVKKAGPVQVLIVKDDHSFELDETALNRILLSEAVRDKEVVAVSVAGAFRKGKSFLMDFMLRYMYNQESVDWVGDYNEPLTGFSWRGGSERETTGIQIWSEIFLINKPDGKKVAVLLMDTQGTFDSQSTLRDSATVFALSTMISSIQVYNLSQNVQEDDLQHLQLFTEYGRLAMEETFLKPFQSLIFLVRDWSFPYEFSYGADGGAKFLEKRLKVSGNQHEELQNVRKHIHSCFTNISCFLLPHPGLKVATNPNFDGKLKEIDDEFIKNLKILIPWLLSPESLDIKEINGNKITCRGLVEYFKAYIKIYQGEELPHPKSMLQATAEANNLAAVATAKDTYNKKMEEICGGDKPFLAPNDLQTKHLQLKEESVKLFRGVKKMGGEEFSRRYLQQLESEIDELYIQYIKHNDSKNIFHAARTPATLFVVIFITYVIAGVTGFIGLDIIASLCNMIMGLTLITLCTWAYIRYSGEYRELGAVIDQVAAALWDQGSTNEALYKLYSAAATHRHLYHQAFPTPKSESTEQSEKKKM

[2] = target: FLAG-tagged ATL2 (ATL2-FLAG) (human) (UniProt Q8NHH9); test: as above

B1: SBP-tagged REEP1 (REEP1-SBP) (protein, UniProt Q9H902 1-201)
chain: MVSWIISRLVVLIFGTLYPAYYSYKAVKSKDIKEYVKWMMYWIIFALFTTAETFTDIFLCWFPFYYELKIAFVAWLLSPYTKGSSLLYRKFVHPTLSSKEKEIDDCLVQAKDRSYDALVHFGKRGLNVAATAAVMAASKGQGALSERLRSFSMQDLTTIRGDGAPAPSGPPPPGSGRASGKHGQPKMSRSASESASSSGTA
[1]
  binding: binds
[2]
  binding: binds

B2: SBP-tagged REEP4 (REEP4-SBP) (protein, UniProt Q9H6H4 1-257)
chain: MVSWMICRLVVLVFGMLCPAYASYKAVKTKNIREYVRWMMYWIVFALFMAAEIVTDIFISWFPFYYEIKMAFVLWLLSPYTKGASLLYRKFVHPSLSRHEKEIDAYIVQAKERSYETVLSFGKRGLNIAASAAVQAATKSQGALAGRLRSFSMQDLRSISDAPAPAYHDPLYLEDQVSHRRPPIGYRAGGLQDSDTEDECWSDTEAVPRAPARPREKPLIRSQSLRVVKRKPPVREGTSRSLKVRTRKKTVPSDVDS
[1]
  binding: binds
[2]
  binding: binds
